# Reference: paper PMC4755027
# Amino acid sequences for entries named in this document (tags omitted). Residues count along the entry.
# UniProt Q9QUN7, residues 25-784: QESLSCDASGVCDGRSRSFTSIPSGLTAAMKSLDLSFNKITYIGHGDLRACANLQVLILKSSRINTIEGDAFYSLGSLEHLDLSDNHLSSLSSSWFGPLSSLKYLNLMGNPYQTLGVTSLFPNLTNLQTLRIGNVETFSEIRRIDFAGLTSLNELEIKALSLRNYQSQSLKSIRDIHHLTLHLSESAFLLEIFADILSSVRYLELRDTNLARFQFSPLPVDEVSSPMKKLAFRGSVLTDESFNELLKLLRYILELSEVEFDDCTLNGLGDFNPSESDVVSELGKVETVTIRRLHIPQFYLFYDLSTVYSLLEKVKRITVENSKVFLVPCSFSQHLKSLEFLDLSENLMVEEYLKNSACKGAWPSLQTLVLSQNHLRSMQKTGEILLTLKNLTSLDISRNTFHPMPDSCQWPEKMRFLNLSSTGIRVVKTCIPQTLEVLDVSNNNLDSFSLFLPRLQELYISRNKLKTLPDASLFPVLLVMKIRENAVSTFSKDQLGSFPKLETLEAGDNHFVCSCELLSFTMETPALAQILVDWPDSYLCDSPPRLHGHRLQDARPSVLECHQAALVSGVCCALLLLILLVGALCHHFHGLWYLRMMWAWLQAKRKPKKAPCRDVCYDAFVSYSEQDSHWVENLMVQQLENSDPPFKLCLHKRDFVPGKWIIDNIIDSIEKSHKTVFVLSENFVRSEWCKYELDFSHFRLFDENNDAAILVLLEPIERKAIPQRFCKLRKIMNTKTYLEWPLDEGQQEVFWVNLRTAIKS
# UniProt P07356: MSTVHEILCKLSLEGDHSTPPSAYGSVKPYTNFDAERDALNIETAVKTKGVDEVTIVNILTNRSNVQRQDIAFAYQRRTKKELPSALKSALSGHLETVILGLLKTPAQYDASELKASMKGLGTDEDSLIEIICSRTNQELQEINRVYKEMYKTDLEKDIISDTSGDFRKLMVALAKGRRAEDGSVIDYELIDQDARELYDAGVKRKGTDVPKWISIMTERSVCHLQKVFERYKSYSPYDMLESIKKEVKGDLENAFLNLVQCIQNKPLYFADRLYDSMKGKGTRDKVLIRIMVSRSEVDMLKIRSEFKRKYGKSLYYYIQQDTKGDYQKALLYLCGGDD
# These are yes or no findings as the source states them, for the method shown. In cells and extracts the contact can be indirect. Some binding calls cover weakened binding; strength is not graded here.
# Target: Toll-like receptor 2 (murine, in GL261 lysate) (mouse (endogenous in GL261)) (UniProt Q9QUN7)
# Test: co-IP; GL261 lysate at 2 mg/ml (RIPA buffer), primary Ab (anti-TLR2 clone T2.5, anti-ANXA2 clone 5) overnight at 4 °C, protein A/G agarose, immunoblot
substance,measurement,value
"Annexin A2 (murine, in GL261 lysate) (from UniProt P07356 1-339)",binding,binds
